Results deposited as PubChem BioAssay AID686937 (Drosophila RNAi Screening Center, 2013).

Assay: 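Genes whose loss weakens secretory pathway function in fly cells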 (primary screen)
Cell system: Drosophila S2 cells expressing secreted horseradish peroxidase
Knock-down reagent: long dsRNA against Drosophila genes
Time to read-out: about 5.5 days (5 days dsRNA, then 12 h reporter induction)
Challenge: reporter expression induced after 5 days of dsRNA, read 12 h later; inducer not stated
Measurement: 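Chemiluminescent measurement of peroxidase in the medium 12 h after reporter induction, following 5 days of dsRNA, given as a z-score per plate; higher means more secretion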
Scale: z-score: higher = more reporter secreted into medium
In all, the deposit lists about 23,000 reagents; below is an unselected part of those with a known target gene and a result. 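Reduced-secretion tags in replicate 1 do not always agree with the z-scores; no criterion for assigning the tags was given.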 A plus sign joins genes that one reagent is predicted to hit. Not all columns of the deposit are shown. Reagent sequences are not shown. The record does not give: the amount of reagent.

z-score, replicate 1, by gene and reagent
Ag5r2: DRSC19328 0.14
HPS4: DRSC06906 0.27
Frq2: DRSC20245 0.47
Vha16-4: DRSC07321 0.09
CG4282: DRSC06865 0.12
CG31221: DRSC14335 -0.08; DRSC16217 0.18
CG7739: DRSC10910 -0.07
Coa7: DRSC20967 -0.07
Or67a: DRSC11240 0.42
CG11737: DRSC14364 -0.13
Nipped-B: DRSC07815 0.26
AMPKalpha: DRSC18714 0.8
Gasp: DRSC12349 0.3
Srr: DRSC16382 0.54
Osi2: DRSC12174 0.11
Acp53Ea: DRSC05916 0.31
CG5986: DRSC15931 0.22
CG8399: DRSC07163 0.29
CG17068: DRSC20545 0.21
CG30279 (retired record): DRSC22417 0.25
Calx: DRSC13457 -2.25; DRSC13459 0.59; DRSC16599 0.42; DRSC21850 0.83
CG42382: DRSC07671 0.13
mRpL50: DRSC11015 0.41
Hsp70Aa + Hsp70Bb + Hsp70Ba + 3 more: DRSC15380 -0.37
CG5877: DRSC19963 0.4
Ac78C: DRSC11467 0.68; DRSC11602 0.27; DRSC11619 -0.18
Ilp3: DRSC10168 0.58
CG1542: DRSC15035 -0.65
Hex-A: DRSC18259 -0.01
Ir56c: DRSC06544 0.26
CG13404: DRSC19536 0.31
CG11905: DRSC09863 0.42
CG8032: DRSC16365 0.31
CG10748: DRSC09797 0.26
CG33012: DRSC06287 0.41; DRSC06288 0.35
Ibf1: DRSC16419 -0.02
CG11672: DRSC14344 -0.19
CG17666: DRSC10276 0.24
drm: DRSC00277 -0.08
CG14764: DRSC05072 -0.4; DRSC06498 0.13; DRSC06844 0.24
CG42319: DRSC06645 0.13; DRSC06646 -0.02; DRSC22426 0.18
CG17127: DRSC02581 0.18
Spn77Bb + Spn77Bc: DRSC10689 0.42; DRSC11793 0.46
Acsx2: DRSC14308 0.22
Top2: DRSC03459 0.81
kl-2: DRSC21136 0.19
morgue: DRSC00264 0.39
CG15561: DRSC15100 0.47
CG12923: DRSC06237 0.34
CG8192: DRSC07101 0.76
CG9641: DRSC00721 0.24
CG18609: DRSC06775 0.2
CG14100: DRSC10101 0.09
CG31446: DRSC13111 0.04
CG12589: DRSC12215 -0.12
Mad1: DRSC07561 0.39
hbn: DRSC04082 -1.34; DRSC04238 -0.05; DRSC04239 0.13; DRSC22436 0.15
CG6983: DRSC10757 0.26
Klp59D: DRSC04118 0.26
CAH7: DRSC15524 0.18
GstS1: DRSC07436 0.39
mRpL27: DRSC22568 -0.04
LIMK1: DRSC19811 0.3
Scgdelta: DRSC18544 0.27
CG14207: DRSC19562 0.47; DRSC19563 0.07
CG13075: DRSC09958 0.34
